According to patent US20220175771A1, “CANCER TREATMENT MODALITIES” (priority 2017, published 2022):

Key:
Assay in all cases: cells
NCI-H23 = conditions: Homo sapiens, NCI-H23, read-out: Tax IC50
NCI-H522 = conditions: Homo sapiens, NCI-H522, read-out: Tax IC50
NCI-H661 = conditions: Homo sapiens, NCI-H661, read-out: Tax IC50
NCI-H1299 = conditions: Homo sapiens, NCI-H1299, read-out: Tax IC50
NCIH1703 = conditions: Homo sapiens, NCI-H1703, read-out: Tax IC50
NCIH2023 = conditions: NCI-H2023, read-out: Tax IC50
NCIH1568 = conditions: NCI-H1568, read-out: Tax IC50
NCIH838 = conditions: Homo sapiens, NCI-H838, read-out: Tax IC50
NCIH1793 = conditions: Homo sapiens, NCI-H1793, read-out: Tax IC50
NCIH2030 = conditions: Homo sapiens, NCI-H2030, read-out: Tax IC50
A549 = conditions: Homo sapiens, A549, read-out: Tax IC50
NCIH1573 = conditions: Homo sapiens, NCI-H1573, read-out: Tax IC50
NCIH1944 = conditions: Homo sapiens, NCI-H1944, read-out: Tax IC50
NCIH2085 = conditions: read-out: Tax IC50
NCIH1581 = conditions: Homo sapiens, NCI-H1581, read-out: Tax IC50
NCIH2291 = conditions: Homo sapiens, NCI-H2291, read-out: Tax IC50
NCIH1734 = conditions: Homo sapiens, NCI-H1734, read-out: Tax IC50
Calu-6 = conditions: Homo sapiens, Calu-6, read-out: Tax IC50
NCI-H460 = conditions: Homo sapiens, NCI-H460, read-out: Tax IC50
NCIH810 = conditions: Homo sapiens, NCI-H810, read-out: Tax IC50
NCIH2172 = conditions: NCI-H2172, read-out: Tax IC50
NCIH1993 = conditions: Homo sapiens, NCI-H1993, read-out: Tax IC50
NCIH2110 = conditions: NCI-H2110, read-out: Tax IC50
NCI-H441 = conditions: Homo sapiens, NCI-H441, read-out: Tax IC50
NCIH2122 = conditions: Homo sapiens, NCI-H2122, read-out: Tax IC50
NCIH1373 = conditions: Homo sapiens, NCI-H1373, read-out: Tax IC50

CCN(c1cc(-c2ccc(CN3CCOCC3)cc2)cc(C(=O)NCc2c(C)cc(C)[nH]c2=O)c1C)C1CCOCC1 [Compound 44, tazemetostat]
IC50 (NCI-H23): ≥ 10 µM
IC50 (NCI-H522): 7 µM
IC50 (NCI-H661): 4 µM
IC50 (NCI-H1299): ≥ 10 µM
IC50 (NCIH1703): 5.4 µM
IC50 (NCIH2023): ≥ 10 µM
IC50 (NCIH1568): ≥ 10 µM
IC50 (NCIH838): ≥ 10 µM
IC50 (NCIH1793): 9 µM
IC50 (NCIH2030): ≥ 10 µM
IC50 (A549): ≥ 10 µM
IC50 (NCIH1573): ≥ 10 µM
IC50 (NCIH1944): ≥ 10 µM
IC50 (NCIH2085): ≥ 10 µM
IC50 (NCIH1581): ≥ 10 µM
IC50 (NCIH2291): ≥ 10 µM
IC50 (NCIH1734): ≥ 10 µM
IC50 (Calu-6): 4.5 µM
IC50 (NCI-H460): ≥ 10 µM
IC50 (NCIH810): 2.4 µM
IC50 (NCIH2172): ≥ 10 µM
IC50 (NCIH1993): ≥ 10 µM
IC50 (NCIH2110): ≥ 10 µM
IC50 (NCI-H441): ≥ 10 µM
IC50 (NCIH2122): ≥ 10 µM
IC50 (NCIH1373): ≥ 10 µM
